# Measured values: article PMC6529012
# These are yes or no findings as the source states them, for the method shown. Binding calls can cover weak binding; strength is not graded here.
# What was measured:
# [1] = biological target: human foreskin fibroblast fibronectin (human); assay: adherence of radiolabelled bacteria to protein-coated wells; inhibition: fibronectin-coated wells preincubated with PBS (mock) or FnbA-2 peptide (200 ug/ml, 10 ug/well) for 1 h at room temperature, washed twice, then 35S-labelled B314 expressing Tp0136 for 1 h; scintillation counting; only the target purified
# [2] = biological target: human foreskin fibroblast fibronectin (human); assay: adherence of radiolabelled bacteria to protein-coated wells; 1 ug fibronectin or laminin coated per well, blocked with 1% BSA in PBS; 35S-labelled B314 expressing Tp0136 added, 1 h at room temperature while rocking; scintillation counting; B314 with empty vector as control; only the target purified
Binder,binding [1],binding [2]
"Tp0136 of Treponema pallidum subsp. pallidum SS14 strain, expressed on the surface of B. burgdorferi B314 (protein, UniProt O83172 24-485) CDFTGIFAAIQSEVPIKTPSIPGAIYGLVKAGSKLYATNGRLWEKELNGTGSWQKVSSSSVPTDSDKKVMSIATDGNTFVLACVPGTGVYKHCVNGAGSSSTGTTASPSTETCSQHATLVGGTSKPFWLVPGGTGNNGNCGCGGGGGGSSSSSSSCIHIWLVPGGTGNNGNCGCGGGGGGSSSSSSSCIHIKVENTDEQFLDMGEGYVVTTKHLYTKNGSSSAGPAQCPGGGGGGGSSGGGGSSEYTKASCSFSTPILASVSDGCYHYILTKEKVYCRKQDTASSAASSPAQCPSSPSSSSSSSTNAGCEVAHGVDDPLCLAIFKHNGCEYLLIGGSRGYGEIKLEANSSGTNGTCMRLKESNVHKSPGQWGESSPTPKASAEQYRGTVGRFAVQKIYVVEKNGGGNGVAAGGAGCPANASSSSGGTSSTQRPDLYAAVGESSDTYTGLWKFDTTTCSWNRE",binds,binds
"Tp0136 of Treponema pallidum subsp. pallidum Nichols (Seattle-Nichols) strain, expressed on the surface of B. burgdorferi B314 (protein, UniProt O83172 24-485) CDFTGIFAAIQSEVPIKTPSIPGAIYGLVKAGSKLYATNGRLWEKELNGTGSWQKVSSSSVPTDSDKKVMSIATDGNTFVLACVPGTGVYKHCVNGAGSSSTGTTASPSTETCSQHATLVGGTSKPFWLVPGGTGNNGNCGCGGGGGGSSSSSSSCIHIWLVPGGTGNNGNCGCGGGGGGSSSSSSSCIHIKVENTDEQFLDMGEGYVVTTKHLYTKNGSSSAGPAQCPGGGGGGGSSGGGGSSEYTKASCSFSTPILASVSDGCYHYILTKEKVYCRKQDTASSAASSPAQCPSSPSSSSSSSTNAGCEVAHGVDDPLCLAIFKHNGCEYLLIGGSRGYGEIKLEANSSGTNGTCMRLKESNVHKSPGQWGESSPTPKASAEQYRGTVGRFAVQKIYVVEKNGGGNGVAAGGAGCPANASSSSGGTSSTQRPDLYAAVGESSDTYTGLWKFDTTTCSWNRE",binds,binds
